System: C57BL/KsJdb/db mice
Assay: Hypoglycemic effect of single or combined administration in db/db mice (plasma glucose on day 14)
Assay type: in vivo, mouse
Experimental: As test animals, C57BL/KsJdb/db mice were used, which were created in Jackson Laboratory (USA) and known as an obesity, hyperlipemia, hyperinsulinemia, and insulin-resistant model (Journal of Clinical Investigation, 85, pp 962-967, 1990). Blood was collected from the orbital venous plexus of each 7-week-old db/db mouse using a heparin-treated capillary tube, and centrifugation was performed to collect plasma. Thereafter, the plasma glucose concentration (Glucose CII-Test Wako (Wako Pure Chemical Industries, Ltd.)), the insulin concentration (Lebis Insulin Kit: for mouse-T (SHIBAYAGI)), and the triglyceride concentration (Triglyceride E-Test Wako (Wako Pure Chemical Industries, Ltd.)) were measured for classification. The classification was performed so that distribution of each measurement item is uniform for each group by block allocation based on many variables in which the plasma glucose concentration is most emphasized using the measured values of the plasma glucose concentration, the body weight, the insulin concentration, and the triglyceride concentration. […] Two hours after the administration of the medicines on the 14th day from the beginning day of the administration, blood was collected from the orbital venous plexus, and the plasma thereof was collected to measure the plasma glucose concentration. […] Each plasma glucose concentration is expressed as mean±standard deviation for 6 mice of each group. Each decreasing rate is calculated from ((mean of plasma glucose concentration of control group)−(mean of plasma glucose concentration of each group))/(mean of plasma glucose concentration of control group)×100, while each relative index is calculated from (mean of plasma glucose concentration of each group)/(mean of plasma glucose concentration of control group).

SMILES: CN(C)C(=N)NC(=N)N.Cl [Metformin, 1,1-Dimethylbiguanide hydrochloride]
- Relative index (300 mg/kg oral once a day for 14 days, mean plasma glucose of group / control group): 0.97
- Plasma glucose concentration (300 mg/kg oral once a day for 14 days, plasma 2 h after dosing on day 14, mean ± SD, 6 mice): 264 ± 110 mg/dL
- Decreasing effect for the plasma glucose concentration (in words) (single administration 300 mg/kg, 14 days, compared with normal db/+m mouse level (187±16)): insufficient
